This is an account of results in paper PMC6693557.

Amino acid sequences for entries named in this document (tags omitted).
UniProt A0A509APU6: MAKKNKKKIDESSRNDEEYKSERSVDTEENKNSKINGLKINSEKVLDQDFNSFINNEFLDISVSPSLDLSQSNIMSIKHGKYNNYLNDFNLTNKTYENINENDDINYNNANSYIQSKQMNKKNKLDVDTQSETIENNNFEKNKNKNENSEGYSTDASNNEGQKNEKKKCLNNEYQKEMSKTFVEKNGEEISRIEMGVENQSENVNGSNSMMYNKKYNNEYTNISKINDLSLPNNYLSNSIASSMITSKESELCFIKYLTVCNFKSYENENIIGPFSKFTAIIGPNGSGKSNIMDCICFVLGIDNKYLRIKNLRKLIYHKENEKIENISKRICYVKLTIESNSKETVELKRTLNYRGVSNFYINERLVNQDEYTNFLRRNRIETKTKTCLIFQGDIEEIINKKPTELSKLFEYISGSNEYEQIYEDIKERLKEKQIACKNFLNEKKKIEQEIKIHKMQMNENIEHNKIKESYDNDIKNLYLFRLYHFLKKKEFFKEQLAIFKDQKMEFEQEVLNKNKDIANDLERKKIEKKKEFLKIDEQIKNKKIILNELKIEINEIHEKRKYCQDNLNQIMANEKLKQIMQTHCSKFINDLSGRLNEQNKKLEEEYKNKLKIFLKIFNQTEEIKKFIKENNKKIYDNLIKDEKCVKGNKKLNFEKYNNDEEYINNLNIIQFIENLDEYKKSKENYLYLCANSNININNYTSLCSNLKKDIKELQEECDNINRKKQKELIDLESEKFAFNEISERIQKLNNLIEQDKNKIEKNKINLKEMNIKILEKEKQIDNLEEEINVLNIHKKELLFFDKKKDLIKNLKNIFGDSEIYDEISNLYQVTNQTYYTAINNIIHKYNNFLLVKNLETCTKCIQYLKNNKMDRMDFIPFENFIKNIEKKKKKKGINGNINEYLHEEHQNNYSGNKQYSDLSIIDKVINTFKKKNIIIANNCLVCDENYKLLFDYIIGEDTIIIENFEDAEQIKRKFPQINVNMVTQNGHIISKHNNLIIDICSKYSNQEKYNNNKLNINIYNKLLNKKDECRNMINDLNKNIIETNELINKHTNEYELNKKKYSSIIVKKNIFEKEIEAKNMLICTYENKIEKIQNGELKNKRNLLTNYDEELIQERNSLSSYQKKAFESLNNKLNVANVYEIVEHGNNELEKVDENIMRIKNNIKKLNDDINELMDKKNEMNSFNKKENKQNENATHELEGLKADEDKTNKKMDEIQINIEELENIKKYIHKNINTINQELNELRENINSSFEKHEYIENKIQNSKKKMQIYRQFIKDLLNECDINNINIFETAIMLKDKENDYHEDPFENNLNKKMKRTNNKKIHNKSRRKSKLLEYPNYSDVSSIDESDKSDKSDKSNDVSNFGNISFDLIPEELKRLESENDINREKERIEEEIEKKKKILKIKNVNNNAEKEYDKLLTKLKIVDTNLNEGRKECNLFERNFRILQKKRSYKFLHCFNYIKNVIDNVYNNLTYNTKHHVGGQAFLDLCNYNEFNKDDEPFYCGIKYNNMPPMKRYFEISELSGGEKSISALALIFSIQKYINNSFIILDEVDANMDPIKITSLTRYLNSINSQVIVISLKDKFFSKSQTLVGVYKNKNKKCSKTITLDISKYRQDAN
UniProt A0A509ARI5: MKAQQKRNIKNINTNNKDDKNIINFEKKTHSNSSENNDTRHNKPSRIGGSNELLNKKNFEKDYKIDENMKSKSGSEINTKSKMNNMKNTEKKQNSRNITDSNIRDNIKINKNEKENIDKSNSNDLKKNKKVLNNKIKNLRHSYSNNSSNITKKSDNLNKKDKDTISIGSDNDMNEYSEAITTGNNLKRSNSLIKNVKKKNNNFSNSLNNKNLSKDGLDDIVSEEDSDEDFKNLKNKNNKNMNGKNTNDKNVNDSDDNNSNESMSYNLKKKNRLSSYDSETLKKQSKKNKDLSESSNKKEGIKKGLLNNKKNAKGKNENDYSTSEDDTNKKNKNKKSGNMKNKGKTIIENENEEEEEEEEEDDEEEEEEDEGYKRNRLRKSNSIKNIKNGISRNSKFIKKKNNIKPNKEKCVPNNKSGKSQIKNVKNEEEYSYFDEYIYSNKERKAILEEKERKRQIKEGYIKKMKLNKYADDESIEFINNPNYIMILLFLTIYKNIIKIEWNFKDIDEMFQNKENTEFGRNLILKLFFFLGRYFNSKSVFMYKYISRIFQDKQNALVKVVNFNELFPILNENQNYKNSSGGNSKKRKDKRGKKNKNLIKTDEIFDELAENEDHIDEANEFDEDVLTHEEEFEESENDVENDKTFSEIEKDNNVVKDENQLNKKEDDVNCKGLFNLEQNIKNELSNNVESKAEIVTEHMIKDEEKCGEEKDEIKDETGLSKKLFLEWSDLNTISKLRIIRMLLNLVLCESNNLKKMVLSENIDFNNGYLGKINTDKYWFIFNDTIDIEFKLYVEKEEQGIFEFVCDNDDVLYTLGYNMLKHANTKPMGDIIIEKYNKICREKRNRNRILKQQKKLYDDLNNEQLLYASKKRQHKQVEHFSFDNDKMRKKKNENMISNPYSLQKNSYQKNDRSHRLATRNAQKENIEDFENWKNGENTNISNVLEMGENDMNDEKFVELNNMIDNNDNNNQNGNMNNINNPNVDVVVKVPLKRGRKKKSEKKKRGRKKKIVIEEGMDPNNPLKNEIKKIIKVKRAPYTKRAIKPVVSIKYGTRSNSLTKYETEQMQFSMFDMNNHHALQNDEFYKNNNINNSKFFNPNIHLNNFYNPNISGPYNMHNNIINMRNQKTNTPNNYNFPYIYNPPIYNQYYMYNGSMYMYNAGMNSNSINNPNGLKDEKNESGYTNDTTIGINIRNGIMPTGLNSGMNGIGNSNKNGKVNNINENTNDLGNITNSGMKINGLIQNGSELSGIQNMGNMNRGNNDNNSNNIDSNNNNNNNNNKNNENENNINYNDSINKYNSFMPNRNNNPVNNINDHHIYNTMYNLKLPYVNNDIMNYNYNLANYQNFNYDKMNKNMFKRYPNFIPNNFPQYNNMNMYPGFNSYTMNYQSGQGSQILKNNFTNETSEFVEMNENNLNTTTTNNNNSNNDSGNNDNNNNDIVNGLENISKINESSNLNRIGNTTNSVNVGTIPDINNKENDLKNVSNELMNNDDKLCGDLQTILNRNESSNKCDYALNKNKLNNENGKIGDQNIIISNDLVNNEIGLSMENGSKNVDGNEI

The target of assay [1] is T1, PBANKA_0716000, structural maintenance of chromosomes protein 3, putative, 3xHA-tagged (P. berghei).
T1 sequence: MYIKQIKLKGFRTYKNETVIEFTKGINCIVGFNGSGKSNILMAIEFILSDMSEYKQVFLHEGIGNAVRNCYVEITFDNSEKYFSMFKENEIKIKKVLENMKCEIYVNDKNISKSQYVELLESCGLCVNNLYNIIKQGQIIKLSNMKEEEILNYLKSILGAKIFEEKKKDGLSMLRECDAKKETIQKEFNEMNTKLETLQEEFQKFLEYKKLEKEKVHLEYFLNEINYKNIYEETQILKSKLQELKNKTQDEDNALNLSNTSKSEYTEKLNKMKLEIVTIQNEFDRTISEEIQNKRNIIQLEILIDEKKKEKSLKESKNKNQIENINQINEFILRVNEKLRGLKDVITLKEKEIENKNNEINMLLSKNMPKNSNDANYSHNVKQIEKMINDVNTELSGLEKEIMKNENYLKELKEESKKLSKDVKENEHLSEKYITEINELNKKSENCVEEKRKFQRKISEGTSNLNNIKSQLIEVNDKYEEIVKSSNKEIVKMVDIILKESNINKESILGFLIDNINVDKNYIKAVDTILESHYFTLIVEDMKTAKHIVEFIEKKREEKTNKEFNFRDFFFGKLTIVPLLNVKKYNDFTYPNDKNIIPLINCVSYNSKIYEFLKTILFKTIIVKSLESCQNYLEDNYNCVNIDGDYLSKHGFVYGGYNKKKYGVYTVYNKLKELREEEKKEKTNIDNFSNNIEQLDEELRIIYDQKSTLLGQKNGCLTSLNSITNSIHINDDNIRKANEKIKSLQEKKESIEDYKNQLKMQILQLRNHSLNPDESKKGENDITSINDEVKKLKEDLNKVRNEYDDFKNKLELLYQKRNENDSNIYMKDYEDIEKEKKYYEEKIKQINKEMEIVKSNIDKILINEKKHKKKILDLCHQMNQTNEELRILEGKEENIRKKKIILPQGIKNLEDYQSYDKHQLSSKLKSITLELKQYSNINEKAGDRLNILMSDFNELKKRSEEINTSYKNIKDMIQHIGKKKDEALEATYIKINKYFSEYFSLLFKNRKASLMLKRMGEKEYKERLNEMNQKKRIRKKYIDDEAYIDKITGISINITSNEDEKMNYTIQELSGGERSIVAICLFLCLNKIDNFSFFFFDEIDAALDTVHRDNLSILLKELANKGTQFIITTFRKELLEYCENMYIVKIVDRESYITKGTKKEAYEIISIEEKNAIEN
Kind of assay: affinity purification with mass spectrometry; anti-HA antibody on Protein G Dynabeads; cleared P. berghei schizont lysate (1 mg protein; 50 mM Tris pH 8, 150 mM NaCl, 1 mM EDTA, 0.1 or 1% NP-40), 2 hours at 4 C; on-bead trypsin digestion, LC-MS/MS; wild-type lysate as control; duplicates; SAINT probability > 0.8 deemed specific.

Assay [2] concerns the target T2, PBANKA_0942700, chromatin remodeling protein, putative (SNF2L), 3xHA-tagged (P. berghei).
T2 sequence: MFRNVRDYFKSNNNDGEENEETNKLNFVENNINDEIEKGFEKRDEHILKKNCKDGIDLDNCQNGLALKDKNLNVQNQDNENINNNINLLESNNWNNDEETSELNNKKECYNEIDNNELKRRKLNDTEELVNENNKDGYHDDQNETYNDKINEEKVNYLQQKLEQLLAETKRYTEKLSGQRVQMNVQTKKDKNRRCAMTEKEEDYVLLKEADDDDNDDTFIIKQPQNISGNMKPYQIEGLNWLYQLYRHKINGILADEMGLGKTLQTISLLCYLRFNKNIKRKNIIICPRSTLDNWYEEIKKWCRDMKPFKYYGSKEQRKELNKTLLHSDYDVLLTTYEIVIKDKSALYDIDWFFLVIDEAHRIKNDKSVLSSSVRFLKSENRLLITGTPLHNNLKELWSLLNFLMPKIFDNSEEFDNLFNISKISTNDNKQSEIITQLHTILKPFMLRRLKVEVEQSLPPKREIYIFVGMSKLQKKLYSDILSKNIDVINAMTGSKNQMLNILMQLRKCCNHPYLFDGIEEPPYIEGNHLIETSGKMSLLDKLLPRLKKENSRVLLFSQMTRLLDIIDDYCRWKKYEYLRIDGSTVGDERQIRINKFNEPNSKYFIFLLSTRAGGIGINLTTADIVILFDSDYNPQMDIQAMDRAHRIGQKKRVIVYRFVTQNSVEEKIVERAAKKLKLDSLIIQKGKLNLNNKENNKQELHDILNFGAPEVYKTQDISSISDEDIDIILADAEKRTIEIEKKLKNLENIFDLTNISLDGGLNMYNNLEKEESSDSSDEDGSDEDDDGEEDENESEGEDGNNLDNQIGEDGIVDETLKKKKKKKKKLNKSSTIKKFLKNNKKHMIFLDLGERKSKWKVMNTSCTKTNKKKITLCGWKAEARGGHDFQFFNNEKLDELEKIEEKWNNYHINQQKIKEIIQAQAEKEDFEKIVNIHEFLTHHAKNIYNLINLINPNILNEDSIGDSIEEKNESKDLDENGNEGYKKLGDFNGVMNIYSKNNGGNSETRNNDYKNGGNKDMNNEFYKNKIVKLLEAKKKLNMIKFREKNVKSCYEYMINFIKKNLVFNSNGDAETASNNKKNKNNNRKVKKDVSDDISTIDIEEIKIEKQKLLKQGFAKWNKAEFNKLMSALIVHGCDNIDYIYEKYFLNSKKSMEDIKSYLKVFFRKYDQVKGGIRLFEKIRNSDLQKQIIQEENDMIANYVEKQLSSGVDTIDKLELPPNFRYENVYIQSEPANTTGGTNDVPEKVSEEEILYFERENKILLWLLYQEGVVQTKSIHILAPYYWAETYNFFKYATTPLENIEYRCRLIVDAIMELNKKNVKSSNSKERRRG
Described as above.

These are yes or no findings as the source states them, for the method shown. Binding seen in cells or lysates may run through a third protein. Here binding means that the protein was enriched with, or labelled near, the bait; the list need not be complete. Sequences can lack the tags named with a protein.

As to “PBANKA_0917500, structural maintenance of chromosomes protein 1, putative (from UniProt A0A509APU6 1-1620)”, the binding entry in assay [1] is given as “binds”.
Consider “PBANKA_1461600, conserved Plasmodium protein, unknown function (from UniProt A0A509ARI5 1-1555)”, for which the binding entry in assay [2] is “binds”.

B1: PBANKA_1304000, conserved Plasmodium protein, unknown function (protein, UniProt A0A509AMW3 1-983)
chain: MEVLAWNDMLKPRIKRSRSIIEREESNTEQYNTPNNQLVIYKNSFKNSSLCYAWNAYFDKNKVKKNIMVCCDLNKICNELLKGIENNSLTIKTFSFLFIGVCNIYKKKVHFIGQDYDLLKRKILSLYKNKDQDVDELGNSKDFKRRKVGKNDNGDDNNGNKRRLSKTPLNIKRGSIGLNEAIPSIIDDFTGRKSRFSLTADEISIAGTEPNNGYYLNDSEMNNQMLMDMSGINDFNFDNDNNTTNNNMNNNYHDLEKALEGSFISRHSTPINNLDGLNLNRSLSESFNHMDKLNAENPIFNNMIPKNMFPNLDASFNEKSMGGNFNNLEFNSVNKSDGFNSMSFYNNAVNGDNMNNLNLSNDYMNGTGGNPYIRTDNTNMFNNMKYRSGINNFNDAVNAPKEFQDISYNNNFMGTFQNMNSPMNNRNDMYNFNPFIRMNSMSNNNFDGRNNLNNFSQRMNNQFGDIDAMSNVMVGSMFSPRKQKNTPQKINYLNRLNFEAYQNFDYFEQKDDDVFIKKLNSLLGLDESEGEEEKEKKGEESLVIPEEEKEKDDSSDKDDFDMDNSDNEKDKSKNNELDLQGKNSNNNKLGVSTSNKSDNMQTSKKRKLEKQVVDKNYMIKESVMRSILKNESVNYKNFLIDTINNEINEQIQREHREFQNFCLQSNTDKTKPIYKMEINFGYESLDYEEKKNVLENYLSYSANDTKYLYENKNVLDNFNIKKCLDNIDENAIYNENDSAMSSNFLPFENNEELMKNNSLNIEEVREQFNGFPIDRDNVIPSEFKNKFSIDLSMTQNDPMDLNLNDLNFKDDMESRIHMDSQISKSLVLYGDDGSVSKADDGQNIHNLNEKLNWEFNSSSLDLPGNSNSDFINIFSKDNESILLEDKRIDFDINLKQYFDLIAKDLLEAYKKLSKKINYIFFDLITKNDKSKEEISILFYITLHLANLGYIQIIQKPILPEHLNSYEENFSRPILIQLVDQKEN
As for B1, the binding result in assay [1] is “binds”.
